Values of other authors as cited in patent publication US20260176628A1, “TARGETED EPIGENETIC EDITING AS NOVEL THERAPY FOR MALIGNANT GLIOMA” (The Regents of the University of California, priority 2022, published 2026).
Where two headings read alike, the source gives them in different places. For at least one compound, name, drawing or mass did not settle the structure.

Experiments:
[1] = molecular target: T1, MGMT in tumor cells (Homo sapiens, UniProt P16455); conditions: Phase III trial, dose-dense TMZ; cited from earlier work
T1 construct: aiming to deplete MGMT in tumor cells; host or cells: patients' tumor cells (clinical trial)
T1 sequence (P16455 1-207): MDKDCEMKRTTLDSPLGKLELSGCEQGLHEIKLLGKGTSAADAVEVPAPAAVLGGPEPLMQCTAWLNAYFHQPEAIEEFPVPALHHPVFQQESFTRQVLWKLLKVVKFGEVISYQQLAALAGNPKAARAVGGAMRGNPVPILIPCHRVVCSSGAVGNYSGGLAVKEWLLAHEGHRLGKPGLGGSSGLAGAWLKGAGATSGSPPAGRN

[2] = tested on: LN18 human glioma cells; conditions: LN18 glioma cell line, unmethylated MGMT; read-out: TMZ EC50; cited from earlier work
[3] = tested on: glioblastoma (GBM); conditions: cited from earlier work
[4] = GBM patients with methylated MGMT
[5] = GBM patients with unmethylated MGMT

## Cn1nnc2c(C(N)=O)ncn2c1=O [TMZ, temozolomide]
[1]
  TMZ sensitivity: failed to improve TMZ sensitivity
[2]
  EC50: 400 µM
[3]; [4]
  overall survival (OS): 21.7 months
  progression-free survival (PFS): 10.3 months
[3]; [5]
  overall survival (OS): 12.7 months
  progression-free survival (PFS): 5.3 months
